# Experimental data taken from patent US12419871B2, “Biomolecules involved in Alzheimer's disease” (ELECTROPHORETICS LIMITED, priority 2015, dated 2025).
# B1: Q99674 (protein, UniProt Q99674 1-318, looked up)
# chain: MLPLTMTVLILLLLPTGQAAPKDGVTRPDSEVQHQLLPNPFQPGQEQLGLLQSYLKGLGRTEVQLEHLSREQVLLYLFALHDYDQSGQLDGLELLSMLTAALAPGAANSPTTNPVILIVDKVLETQDLNGDGLMTPAELINFPGVALRHVEPGEPLAPSPQEPQAVGRQSLLAKSPLRQETQEAPGPREEAKGQVEARRESLDPVQEPGGQAEADGDVPGPRGEAEGQAEAKGDAPGPRGEAGGQAEAEGDAPGPRGEAGGQAEAEGDAPGPRGEAGGQAEARENGEEAKELPGETLESKNTQNDFEVHIVQVENDEI
# modifications: full-length
# B2: Q96FZ7 (protein, UniProt Q96FZ7 1-201, looked up)
# chain: MGNLFGRKKQSRVTEQDKAILQLKQQRDKLRQYQKRIAQQLERERALARQLLRDGRKERAKLLLKKKRYQEQLLDRTENQISSLEAMVQSIEFTQIEMKVMEGLQFGNECLNKMHQVMSIEEVERILDETQEAVEYQRQIDELLAGSFTQEDEDAILEELSAITQEQIELPEVPSEPLPEKIPENVPVKARPRQAELVAAS
# modifications: full-length
# B3: Q92851 (protein, UniProt Q92851 1-521, looked up)
# chain: MKSQGQHWYSSSDKNCKVSFREKLLIIDSNLGVQDVENLKFLCIGLVPNKKLEKSSSASDVFEHLLAEDLLSEEDPFFLAELLYIIRQKKLLQHLNCTKEEVERLLPTRQRVSLFRNLLYELSEGIDSENLKDMIFLLKDSLPKTEMTSLSFLAFLEKQGKIDEDNLTCLEDLCKTVVPKLLRNIEKYKREKAIQIVTPPVDKEAESYQGEEELVSQTDVKTFLEALPQESWQNKHAGSNGNRATNGAPSLVSRGMQGASANTLNSETSTKRAAVYRMNRNHRGLCVIVNNHSFTSLKDRQGTHKDAEILSHVFQWLGFTVHIHNNVTKVEMEMVLQKQKCNPAHADGDCFVFCILTHGRFGAVYSSDEALIPIREIMSHFTALQCPRLAEKPKLFFIQACQGEEIQPSVSIEADALNPEQAPTSLQDSIPAEADFLLGLATVPGYVSFRHVEEGSWYIQSLCNHLKKLVPRMLKFLEKTMEIRGRKRTVWGAKQISATSLPTAISAQTPRPPMRRWSSVS
# modifications: full-length
# B4: Q86VU5 (protein, UniProt Q86VU5 1-262, looked up)
# chain: MTQPVPRLSVPAALALGSAALGAAFATGLFLGRRCPPWRGRREQCLLPPEDSRLWQYLLSRSMREHPALRSLRLLTLEQPQGDSMMTCEQAQLLANLARLIQAKKALDLGTFTGYSALALALALPADGRVVTCEVDAQPPELGRPLWRQAEAEHKIDLRLKPALETLDELLAAGEAGTFDVAVVDADKENCSAYYERCLQLLRPGGILAVLRVLWRGKVLQPPKGDVAAECVRNLNERIRRDVRVYISLLPLGDGLTLAFKI
# modifications: full-length
# Assay: TMTcalibrator quantification of regulated proteins in AD CSF versus control
# Parameters: species or system human
# Conditions: CSF of AD patient versus control; non-modified peptides of each protein summed for three control and three AD cases
row,Molecule,Log2 AD/Control
1,B1,0.86
2,B2,0.83
3,B3,1.21
4,B4,1.06
